Test results reported in paper PMC7224192, “MYC transcription activation mediated by OCT4 as a mechanism of resistance to 13-cisRA-mediated differentiation in neuroblastoma”.
Results are given in words; binding and its absence hold for the method and conditions named. In cells and extracts the contact can be indirect. These calls come from enrichment with a bait or labelling near it, and not all partners need be listed.

Chains of the proteins cited; added tags and fusions are not shown.
UniProt Q01860: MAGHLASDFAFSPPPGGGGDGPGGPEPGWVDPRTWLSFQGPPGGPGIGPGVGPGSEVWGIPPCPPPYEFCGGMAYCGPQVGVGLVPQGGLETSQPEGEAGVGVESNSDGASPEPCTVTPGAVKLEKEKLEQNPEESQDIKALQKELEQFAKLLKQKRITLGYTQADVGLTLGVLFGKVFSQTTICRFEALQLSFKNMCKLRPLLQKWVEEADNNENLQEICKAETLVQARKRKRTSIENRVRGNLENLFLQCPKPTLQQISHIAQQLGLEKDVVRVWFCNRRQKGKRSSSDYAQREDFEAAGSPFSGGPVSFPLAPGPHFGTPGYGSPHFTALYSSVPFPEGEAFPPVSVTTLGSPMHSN
UniProt P78527: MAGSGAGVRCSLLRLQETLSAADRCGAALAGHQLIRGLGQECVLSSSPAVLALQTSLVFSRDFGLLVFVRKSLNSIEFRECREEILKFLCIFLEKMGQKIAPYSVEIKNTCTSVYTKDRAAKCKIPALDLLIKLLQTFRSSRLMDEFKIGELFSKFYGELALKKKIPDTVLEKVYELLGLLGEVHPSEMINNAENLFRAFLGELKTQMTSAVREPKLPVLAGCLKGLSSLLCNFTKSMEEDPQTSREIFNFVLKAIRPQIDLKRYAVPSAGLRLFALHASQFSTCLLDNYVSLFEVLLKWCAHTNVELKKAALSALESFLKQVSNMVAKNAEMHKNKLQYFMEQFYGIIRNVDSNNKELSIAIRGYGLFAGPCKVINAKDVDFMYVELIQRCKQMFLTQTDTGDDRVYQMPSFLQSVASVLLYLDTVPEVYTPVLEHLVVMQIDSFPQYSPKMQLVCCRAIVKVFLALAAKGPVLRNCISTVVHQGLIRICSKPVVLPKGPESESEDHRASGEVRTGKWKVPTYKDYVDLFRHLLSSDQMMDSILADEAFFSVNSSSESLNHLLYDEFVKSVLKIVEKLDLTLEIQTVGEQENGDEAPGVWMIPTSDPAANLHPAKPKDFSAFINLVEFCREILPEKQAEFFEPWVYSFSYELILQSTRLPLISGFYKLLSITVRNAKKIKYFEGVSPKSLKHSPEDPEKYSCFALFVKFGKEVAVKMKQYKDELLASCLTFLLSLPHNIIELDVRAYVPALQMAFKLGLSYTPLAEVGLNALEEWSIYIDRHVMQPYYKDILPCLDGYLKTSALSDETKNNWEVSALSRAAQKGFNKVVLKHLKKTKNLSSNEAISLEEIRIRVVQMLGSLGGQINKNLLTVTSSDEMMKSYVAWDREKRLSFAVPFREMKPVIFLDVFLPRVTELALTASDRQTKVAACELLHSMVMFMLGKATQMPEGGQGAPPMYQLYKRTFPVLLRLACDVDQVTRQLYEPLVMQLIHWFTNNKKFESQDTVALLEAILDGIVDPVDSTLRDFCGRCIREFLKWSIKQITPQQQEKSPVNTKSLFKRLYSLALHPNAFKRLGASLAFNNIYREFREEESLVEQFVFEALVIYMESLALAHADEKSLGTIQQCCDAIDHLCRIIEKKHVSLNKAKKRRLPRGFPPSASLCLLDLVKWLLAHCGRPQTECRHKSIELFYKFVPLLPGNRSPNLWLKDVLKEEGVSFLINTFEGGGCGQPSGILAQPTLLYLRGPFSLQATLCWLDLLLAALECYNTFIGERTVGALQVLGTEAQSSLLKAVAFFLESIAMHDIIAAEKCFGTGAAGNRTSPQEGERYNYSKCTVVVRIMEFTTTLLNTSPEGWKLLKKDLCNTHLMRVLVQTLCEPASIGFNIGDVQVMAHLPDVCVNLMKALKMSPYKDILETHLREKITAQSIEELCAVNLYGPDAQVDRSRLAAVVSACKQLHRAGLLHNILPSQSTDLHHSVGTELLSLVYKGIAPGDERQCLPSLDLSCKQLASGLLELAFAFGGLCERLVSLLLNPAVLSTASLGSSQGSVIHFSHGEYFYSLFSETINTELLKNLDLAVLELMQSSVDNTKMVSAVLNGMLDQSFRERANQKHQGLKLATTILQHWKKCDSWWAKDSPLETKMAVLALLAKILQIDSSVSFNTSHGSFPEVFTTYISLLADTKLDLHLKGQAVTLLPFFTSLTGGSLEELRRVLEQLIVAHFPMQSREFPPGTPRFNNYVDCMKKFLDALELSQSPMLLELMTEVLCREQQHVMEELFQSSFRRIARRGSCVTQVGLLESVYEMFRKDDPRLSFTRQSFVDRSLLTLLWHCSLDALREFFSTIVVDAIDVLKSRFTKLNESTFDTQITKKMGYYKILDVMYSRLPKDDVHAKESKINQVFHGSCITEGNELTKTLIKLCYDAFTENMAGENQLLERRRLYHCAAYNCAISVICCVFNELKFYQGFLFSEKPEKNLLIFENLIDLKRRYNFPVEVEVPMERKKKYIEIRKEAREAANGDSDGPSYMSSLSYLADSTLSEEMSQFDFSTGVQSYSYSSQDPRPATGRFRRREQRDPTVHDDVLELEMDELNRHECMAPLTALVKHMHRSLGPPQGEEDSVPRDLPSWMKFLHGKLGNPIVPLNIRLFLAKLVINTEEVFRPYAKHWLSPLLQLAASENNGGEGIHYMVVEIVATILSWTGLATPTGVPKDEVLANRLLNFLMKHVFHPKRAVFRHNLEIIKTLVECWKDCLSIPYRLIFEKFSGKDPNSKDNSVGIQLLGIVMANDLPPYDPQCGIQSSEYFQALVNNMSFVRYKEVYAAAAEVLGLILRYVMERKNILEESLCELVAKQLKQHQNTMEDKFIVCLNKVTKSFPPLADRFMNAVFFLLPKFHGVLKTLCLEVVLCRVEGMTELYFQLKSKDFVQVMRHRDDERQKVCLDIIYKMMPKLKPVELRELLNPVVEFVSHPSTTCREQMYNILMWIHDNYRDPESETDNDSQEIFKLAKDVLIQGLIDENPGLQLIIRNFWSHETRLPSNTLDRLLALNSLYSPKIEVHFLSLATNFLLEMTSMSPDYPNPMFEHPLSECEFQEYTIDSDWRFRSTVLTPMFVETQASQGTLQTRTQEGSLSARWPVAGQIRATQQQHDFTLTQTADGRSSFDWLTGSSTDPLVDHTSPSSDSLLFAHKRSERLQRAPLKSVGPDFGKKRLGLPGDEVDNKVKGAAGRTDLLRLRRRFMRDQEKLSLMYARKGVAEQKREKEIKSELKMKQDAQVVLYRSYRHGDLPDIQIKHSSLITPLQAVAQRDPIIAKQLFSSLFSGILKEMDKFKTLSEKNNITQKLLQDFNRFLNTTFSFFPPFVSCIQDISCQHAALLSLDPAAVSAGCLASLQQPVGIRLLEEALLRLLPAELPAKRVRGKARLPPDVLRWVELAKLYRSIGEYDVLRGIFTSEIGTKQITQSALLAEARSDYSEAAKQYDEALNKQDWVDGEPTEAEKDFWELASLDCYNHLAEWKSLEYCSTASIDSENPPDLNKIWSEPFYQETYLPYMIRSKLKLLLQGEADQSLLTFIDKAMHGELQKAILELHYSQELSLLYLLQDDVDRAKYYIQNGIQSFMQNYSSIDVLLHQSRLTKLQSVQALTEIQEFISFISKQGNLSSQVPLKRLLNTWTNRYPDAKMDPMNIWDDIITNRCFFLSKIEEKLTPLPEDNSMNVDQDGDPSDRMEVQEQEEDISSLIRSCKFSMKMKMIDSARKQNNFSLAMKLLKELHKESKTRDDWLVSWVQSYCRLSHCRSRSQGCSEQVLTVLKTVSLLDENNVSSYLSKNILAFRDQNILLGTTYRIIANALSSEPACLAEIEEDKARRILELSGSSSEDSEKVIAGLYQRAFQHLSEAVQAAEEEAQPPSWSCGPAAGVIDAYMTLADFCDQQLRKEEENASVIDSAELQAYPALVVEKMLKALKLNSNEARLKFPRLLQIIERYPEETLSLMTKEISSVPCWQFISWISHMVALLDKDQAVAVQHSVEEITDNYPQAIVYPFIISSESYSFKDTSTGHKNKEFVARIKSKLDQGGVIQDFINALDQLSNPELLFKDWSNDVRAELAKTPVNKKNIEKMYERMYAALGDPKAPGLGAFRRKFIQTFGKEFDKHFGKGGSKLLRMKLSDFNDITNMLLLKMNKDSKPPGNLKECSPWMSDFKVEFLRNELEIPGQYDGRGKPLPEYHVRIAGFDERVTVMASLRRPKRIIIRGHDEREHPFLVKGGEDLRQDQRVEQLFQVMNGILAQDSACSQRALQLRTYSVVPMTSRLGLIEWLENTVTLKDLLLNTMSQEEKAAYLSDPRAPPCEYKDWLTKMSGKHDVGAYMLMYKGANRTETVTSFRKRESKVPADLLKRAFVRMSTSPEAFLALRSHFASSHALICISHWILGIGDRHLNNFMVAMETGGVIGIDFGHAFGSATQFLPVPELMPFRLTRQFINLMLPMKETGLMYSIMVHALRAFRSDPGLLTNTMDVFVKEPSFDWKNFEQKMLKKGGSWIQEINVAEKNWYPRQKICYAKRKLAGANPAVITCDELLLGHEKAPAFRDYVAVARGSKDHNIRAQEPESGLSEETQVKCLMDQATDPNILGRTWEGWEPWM
UniProt P49137: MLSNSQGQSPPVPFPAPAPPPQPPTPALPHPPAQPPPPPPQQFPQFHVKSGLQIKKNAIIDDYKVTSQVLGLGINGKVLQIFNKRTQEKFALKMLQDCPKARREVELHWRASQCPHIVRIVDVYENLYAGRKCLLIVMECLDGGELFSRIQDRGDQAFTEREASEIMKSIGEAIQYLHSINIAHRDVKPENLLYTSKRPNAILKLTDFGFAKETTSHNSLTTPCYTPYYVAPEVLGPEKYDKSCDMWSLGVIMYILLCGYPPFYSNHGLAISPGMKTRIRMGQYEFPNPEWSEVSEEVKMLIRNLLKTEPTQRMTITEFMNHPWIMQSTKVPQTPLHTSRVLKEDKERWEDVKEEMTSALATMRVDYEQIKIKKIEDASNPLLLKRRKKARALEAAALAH

Biological target: mycDDK-tagged wild-type OCT4 (POU5F1) (human) (UniProt Q01860)
Assay: affinity purification with mass spectrometry; anti-FLAG (EZview Red) IP of OCT4-mycDDK from cytosolic and nuclear fractions of LHN-R cells; SDS-PAGE, entire lanes analysed by mass spectrometry for protein ID

Row | binding | Substance
1 | binds | DNA-PKcs, endogenous (from UniProt P78527 1-4128) (enzyme)
2 | binds | MAPKAPK2 (MK2), endogenous (from UniProt P49137 1-400) (enzyme)
